Source: PubChem BioAssay AID1159506 (NCATS, 2015).

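Luminescence from an EWS-FLI1 target-promoter (NR0B1) reporter, set against a CMV-promoter reporter, two days after silencing single genes in TC32 Ewing sarcoma cells. Each siRNA was applied at 20 nM. A z-score of the log NR0B1-over-CMV signal, less the median of siRNAs with the same seed; more negative means a stronger specific loss of the NR0B1 reporter.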

The strongest results of the screen are mostly left out here. Sequences are the guide (antisense) strand, without overhang.

| siRNA | target gene | seed-corrected z-score |
|---|---|---|
| `UCACGUUUCUGCAUCCUUC` | ITGB8 | -0.5888 |
| `AACGCGAACAUCAAAGUCC` | ARFGEF1 | 0.3908 |
| `UUAAUGGCUAGCUUCUCCC` | HSPA8P14 | -0.9742 |
| `UCUGAAGUUUGCAUUCUCC` | ZC3HAV1L | -0.2491 |
| `UCUGAUCUAAUUCUCUUGC` | SLC16A12 | -0.5106 |
| `AUCCAGGAUAUAGCAGAGC` | FCER1G | 0.03389 |
| `UAACUAAGCAUGAGAGGCC` | PGGT1B | 0.5698 |
| `UCCGGAUAGAGAUAGUCGG` | PLAU | -1.402 |
| `UACAUGAACUCGAUCUCCG` | LMF2 | 0.7476 |
| `UCAUAUUCCUCAUAGAUUC` | PTPN9 | 0.04647 |
| `UGGAGUCACAAGGCUGAGG` | RNF183 | -0.4778 |
| `AAUGUUAUAGGUCGGGUCG` | SEZ6L | -0.3609 |
| `AUAGGCACGAUGAUGAAGA` | CD79B | 0.6619 |
| `AAUGUGCUCGCAGGUGUUC` | UNC119 | -0.03872 |
| `AUCAUAACAGCACUGCUCU` | IGFL3 | -1.281 |
| `UUCAUAGUCAUAAUAAGGG` | ZC3H18 | -0.3218 |
| `UAACUGAUCAACCAUAAGC` | RNF7 | 0.1254 |
| `AUAGUCCUCCGUCCUAUAC` | BCAS4 | -0.5315 |
| `UUUGCGCAGAAGGACAGGC` | OR1G1 | 0.2743 |
| `UCCAUGAUCUCCUUAUUGC` | MRPS25 | 0.2521 |
| `UAUGUUUUAACAGAGCAUC` | ZBED6CL | 0.5332 |
| `AACAGAGAGACAGUCGUCU` | CRYGB | 0.07448 |
| `UUCGGAACUGCAGGAAAGG` | FRMD8 | 0.493 |
| `AAAUCCACCUGACAGCUCC` | LOC145783 | -0.349 |
| `UUUCUGACGACCUACAAAC` | NDUFS6 | -0.9827 |
| `AAUCUGACCCGUUAAUUCG` | CLCN1 | -0.09531 |
| `GAGCAUGAACCUUUUCUGC` | LOC390956 | -1.67 |
| `UCCUGUUCCACGUAAUCUG` | EFTUD2 | -1.912 |
| `UUCCAAGCAAACGACACCA` | RPL7L1P5 | -1.801 |
| `UACUCUGCAAUCCAGAUCC` | CH17-351M24.1 | -1.126 |
| `UCCUUGACGAUGAAGAUCA` | MCM5 | -1.039 |
| `AUAAAUACCCGAAACAAUC` | HMX2 | 0.3015 |
| `UCUACUGCUACAACUGCCG` | GMEB1 | 0.8217 |
| `UAAAGUUCUCGGCCGUCUU` | PPIH | 0.1859 |
| `UGUGGAAGGUGGGCAGUUC` | WASH5P | 0.3946 |
| `AAGCUUGUGAUAUAAUCUG` | CHIC1 | -0.9087 |
| `UGAUGUUAAACUGGUCUGC` | KLHL10 | 0.5926 |
| `UUGUUGGGAAGCAUUAUAG` | ZNF770 | -0.9924 |
| `UACACUCCUGAAAAGAUCU` | IFNA21 | -0.2417 |
| `UUGUUUUCGGUGUUCUCCC` | SIX1 | 0.4995 |
| `UCUGGGUGUCCCAUGAGCU` | ARC | 2.047 |
| `UCUGAUAUCAUUUUCGCUG` | CTNNA3 | 0.1003 |
| `UGUGGAUUAUCCCUGAGGC` | AGBL5 | 0.6904 |
| `UUUGGUGUAUUCAUCAUAG` | COL10A1 | 0.4429 |
| `AGAGGAAGAAGUUGCACCG` | APEX2 | 0.5079 |
| `AAUGAGAUGAGUGGGCUGG` | SNX30 | -1.163 |
| `UUUGUCUUAAUGCCCUUCC` | FAM3C | 0.2882 |

Repeated from the top, 4 entries:

Result for UCACGUUUCUGCAUCCUUC against ITGB8 was seed-corrected z-score -0.5888.
Result for AACGCGAACAUCAAAGUCC against ARFGEF1 was seed-corrected z-score 0.3908.
Result for UUAAUGGCUAGCUUCUCCC against HSPA8P14 was seed-corrected z-score -0.9742.
Result for UCUGAAGUUUGCAUUCUCC against ZC3HAV1L was seed-corrected z-score -0.2491.